Measurements reported in PubChem BioAssay AID743454 (Peter MacCallum Cancer Centre, 2014).

Test: 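Search for knock-downs that restore vorinostat killing in resistant colon cancer cells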 (primary screen)
Cell system: human HCT116-VR colon cancer cells, selected for vorinostat resistance
Reagents: siRNA pool against human genes, 40 nM siRNA pool
Time to read-out: vorinostat for 24 h, read-out about 72 h after transfection
Treatment: vorinostat at 2.5 µM final
Measured: 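Two measures, CellTiter-Fluor viability and luminescent caspase 3/7 activity, each as fold change against same-plate mock wells, mean of duplicates, then screen-wide robust z-score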
Reading the numbers: viability robust z-score: higher = more viable cells than screen typical; caspase robust z-score: higher = more caspase 3/7 activity than screen typical
Call rule: 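a knock-down is a hit when classed RV1 or RV2 for lowered viability, or CA1 or CA2 for caspase activation; those lethal without drug were dropped; hits were retested singly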
This is a random part of about 18,000 deposited reagents. In the full data, 450 (2.5%) are marked active. 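Single biological run; no consistent viability z cut-off exists, so the class columns, not z-scores, define the calls.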

| target | viability hit class | caspase hit class | viability robust z-score | caspase robust z-score | activity call |
| --- | --- | --- | --- | --- | --- |
| CDC14B | no change | no change | -0.96 | -0.82 | inactive |
| IFITM5 | no change | no change | 0.8 | -0.24 | inactive |
| WDR38 | no change | no change | 0.3 | 0.02 | inactive |
| PACS1 | no change | no change | 0.08 | 1.77 | inactive |
| CCN6 | no change | no change | -0.1 | -0.37 | inactive |
| VSTM1 | no change | no change | -1.06 | 1.11 | inactive |
| OR2W3 | no change | no change | -0.66 | 4.79 | inactive |
| CPNE5 | no change | no change | 0.84 | 0.54 | inactive |
| MTBP | no change | no change | -0.9 | -0.11 | inactive |
| SLC33A1 | no change | no change | -0.46 | -0.76 | inactive |
| FUCA2 | no change | no change | -1.48 | 3.81 | inactive |
| SEMA5A | no change | no change | 0.44 | -0.73 | inactive |
| FCHO1 | no change | no change | -0.1 | 3.23 | inactive |
| PXMP2 | no change | no change | 0.3 | 0.42 | inactive |
| WDR17 | no change | no change | 0.1 | -0.22 | inactive |
| CARD11 | no change | no change | -0.22 | -1.19 | inactive |
| ZMAT4 | no change | no change | -0.64 | -0.35 | inactive |
| DNAL4 | no change | no change | -0.01 | 0.3 | inactive |
| NOTCH4 | no change | no change | 1.09 | -1.17 | inactive |
| ATP5MC3 | no change | no change | 1.45 | -0.15 | inactive |
| FOXJ1 | no change | no change | 2.02 | -0.14 | inactive |
| FAR2 | no change | no change | 1.31 | 0.62 | inactive |
| AQP11 | no change | no change | 0.02 | 0.12 | inactive |
| TOX3 | no change | no change | 0.12 | 0.67 | inactive |
| PTOV1 | no change | no change | -1.07 | 1.77 | inactive |
| NRROS | no change | no change | -0.05 | -0.49 | inactive |
| WDR45B | no change | no change | 0.09 | -0.56 | inactive |
| RBMY1J | no change | no change | -0.97 | -0.52 | inactive |
| SLC25A36 | no change | no change | -1 | 0.06 | inactive |
| PRKY | no change | no change | -0.4 | 0.15 | inactive |
| RFPL4B | no change | no change | 0.68 | -0.61 | inactive |
| COX16 | no change | no change | 0.44 | 1.95 | inactive |
| GGCT | no change | no change | -1.26 | -0.86 | inactive |
| RBP3 | no change | no change | -0.69 | 0.9 | inactive |
| NXPE2 | no change | no change | 1.52 | 0.57 | inactive |
| ATG14 | no change | no change | 1.12 | -0.53 | inactive |
| FCN2 | no change | no change | 0.68 | 0.98 | inactive |
| RCSD1 | no change | no change | -0.81 | -0.66 | inactive |
| CSF3R | no change | no change | -0.66 | 0.67 | inactive |
| MRPL4 | no change | no change | 0.8 | 0.82 | inactive |
| SLAMF9 | no change | no change | 0.2 | -0.08 | inactive |
| CDK5 | no change | no change | -0.06 | 1.31 | inactive |
| MRPS15 | no change | no change | -0.82 | -0.18 | inactive |
| PSME4 | no change | no change | 0.61 | 0.8 | inactive |
| DYNC2I1 | no change | no change | 0.39 | 0.97 | inactive |
| PRPF38A | RV2 (reduced viability) | no change | -3.34 | -0.35 | active |
| HPCAL4 | no change | no change | -1.02 | 0.52 | inactive |
| N4BP2L1 | no change | no change | 0.05 | 0.84 | inactive |
| HLA-F | no change | no change | 0.48 | 1.05 | inactive |
| GRAMD1C | no change | no change | 1.48 | 0.3 | inactive |
| CEACAM4 | no change | no change | -0.08 | -0.22 | inactive |
| FAM209A | no change | no change | 0.53 | 4.73 | inactive |
| MRPL52 | no change | no change | 0.92 | -0.38 | inactive |
| DRC8 | no change | no change | -0.18 | -0.03 | inactive |
| RNF144B | no change | no change | -1.38 | -0.5 | inactive |
| LYPD6 | no change | no change | 0.62 | -0.73 | inactive |
| PHOX2B | no change | no change | -0.08 | -0.7 | inactive |
